PubChem BioAssay AID504774 – Drosophila RNAi Screening Center | 2011
The deposit covers about 23,000 reagents; shown is an unselected part of those with a known target gene and a result. 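Values are quantile-normalised luminescence on an arbitrary scale; higher means more cells surviving MMS.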 Reagents against one gene are numbered here. A plus sign joins genes that one reagent is predicted to hit. Further read-outs or replicates are left out here.

- Screen: 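Genes required for cells to withstand methyl methanesulphonate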 (primary screen)
- System: Drosophila Kc167 cells
- Reagents: long dsRNA against Drosophila genes, about 0.25 µg dsRNA per well
- Timing: about 6 days: 3 days knock-down, then 3 days with or without MMS
- Challenge: methyl methanesulphonate 0.004% (w/v) for 3 days after knock-down
- Measurement: 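ATP-dependent luminescence as a measure of live cells in MMS-exposed wells, quantile normalised within each plate, with replicate values also given as a mean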
- Direction: mean viability with MMS and viability with MMS: higher = more surviving cells after MMS

target | dsRNA no. | mean viability with MMS | viability with MMS, replicate 1
CG11600 (GeneID 41555) | 1 | 3.46e6 | 3.96e6
Cyp6a18 (GeneID 43304) | 1 | 3.59e6 | 3.82e6
CG11357 (GeneID 38561) | 1 | 3.79e6 | 4.50e6
CG42518 + MED9 | 1 | 3.38e6 | 3.86e6
CG1695 (GeneID 33046) | 1 | 3.64e6 | 4.09e6
Ir94f (GeneID 318632) | 1 | 3.59e6 | 4.11e6
CG42331 (GeneID 42948) | 1 | 1.66e6 | 3.85e6
CG42331 (GeneID 42948) | 2 | 3.47e6 | 3.84e6
CG13962 (GeneID 35270) | 1 | 3.41e6 | 3.88e6
Cpr62Ba (GeneID 38239) | 1 | 3.63e6 | 4.16e6
rn (GeneID 40879) | 1 | 2.88e6 | 3.60e6
rn (GeneID 40879) | 2 | 3.54e6 | 3.99e6
rn (GeneID 40879) | 3 | 3.50e6 | 4.01e6
rn (GeneID 40879) | 4 | 3.58e6 | 4.07e6
rn (GeneID 40879) | 5 | 3.29e6 | 3.83e6
ras (GeneID 43873) | 1 | 3.47e6 | 4.23e6
CG42586 + CG31775 | 1 | 3.39e6 | 3.86e6
CG15408 (GeneID 33548) | 1 | 3.53e6 | 4.06e6
MED16 (GeneID 37535) | 1 | 3.37e6 | 3.78e6
CG6937 + btn | 1 | 3.47e6 | 3.98e6
CG14613 (GeneID 33133) | 1 | 3.64e6 | 4.20e6
CG12477 (GeneID 40040) | 1 | 3.34e6 | 3.75e6
LSm3 (GeneID 42842) | 1 | 3.67e6 | 4.13e6
CG15395 (GeneID 33447) | 1 | 3.31e6 | 3.66e6
eya (GeneID 33916) | 1 | 3.61e6 | 4.23e6
Polr1B (GeneID 33210) | 1 | 3.34e6 | 3.51e6
Klp67A + CG34456 | 1 | 3.52e6 | 4.31e6
Sirt6 (GeneID 41254) | 1 | 3.51e6 | 4.00e6
CG34459 (GeneID 5740101) | 1 | 3.62e6 | 4.07e6
Nha1 (GeneID 33961) | 1 | 3.43e6 | 4.02e6
RYBP (GeneID 37601) | 1 | 3.55e6 | 4.08e6
CG4598 (GeneID 34315) | 1 | 3.46e6 | 3.90e6
Hr3 (GeneID 36073) | 1 | 3.17e6 | 3.71e6
Hr3 (GeneID 36073) | 2 | 3.67e6 | 4.12e6
Clp (GeneID 33259) | 1 | 3.43e6 | 3.89e6
Oatp58Da (GeneID 37543) | 1 | 3.38e6 | 3.79e6
CG5882 (GeneID 43269) | 1 | 3.60e6 | 4.17e6
Hr39 (GeneID 35398) | 1 | 3.54e6 | 4.15e6
HP1e (GeneID 41108) | 1 | 3.42e6 | 3.91e6
PGRP-SB1 (GeneID 39870) | 1 | 3.55e6 | 4.06e6
AlkB (GeneID 2768870) | 1 | 3.65e6 | 4.18e6
stj (GeneID 36526) | 1 | 3.62e6 | 4.06e6
CG14598 (GeneID 40893) | 1 | 3.31e6 | 3.75e6
KdelR (GeneID 34427) | 1 | 3.32e6 | 3.62e6
CG8117 (GeneID 32499) | 1 | 3.57e6 | 4.10e6
CG12460 (retired record) (GeneID 3355078) | 1 | 3.63e6 | 4.08e6
pds5 (GeneID 36286) | 1 | 3.46e6 | 3.93e6
CG11726 (GeneID 39275) | 1 | 3.53e6 | 3.95e6
Rbfox1 (GeneID 39198) | 1 | 3.65e6 | 4.09e6
Rbfox1 (GeneID 39198) | 2 | 3.48e6 | 3.46e6
Rbfox1 (GeneID 39198) | 3 | 3.17e6 | 3.61e6
Rbfox1 (GeneID 39198) | 4 | 3.58e6 | 4.04e6
Rbfox1 (GeneID 39198) | 5 | 3.58e6 | 3.96e6
CG30274 (GeneID 246521) | 1 | 3.65e6 | 4.12e6
CG12164 (GeneID 35651) | 1 | 3.72e6 | 4.21e6
CG12164 (GeneID 35651) | 2 | 3.34e6 | 3.86e6
iPLA2-VIA (GeneID 39160) | 1 | 3.41e6 | 3.90e6
Zfrp8 (GeneID 45021) | 1 | 3.56e6 | 4.00e6
CG2258 (GeneID 31729) | 1 | 3.63e6 | 3.95e6
CG11837 (GeneID 43429) | 1 | 3.36e6 | 3.80e6
feo (GeneID 32015) | 1 | 1.79e6 | 4.02e6
GAPsec (GeneID 38987) | 1 | 3.59e6 | 4.04e6
CG12069 (GeneID 43643) | 1 | 3.37e6 | 3.76e6
roh (GeneID 246602) | 1 | 3.40e6 | 3.88e6
U4-U6-60K (GeneID 39955) | 1 | 3.47e6 | 3.95e6
CG32695 (GeneID 31918) | 1 | 3.84e6 | 4.27e6
dmpd (GeneID 36061) | 1 | 3.66e6 | 4.13e6
Rim (GeneID 42150) | 1 | 3.76e6 | 4.10e6
Rim (GeneID 42150) | 2 | 3.07e6 | 3.61e6
Rim (GeneID 42150) | 3 | 3.76e6 | 4.17e6
Rim (GeneID 42150) | 4 | 3.67e6 | 4.16e6
Rim (GeneID 42150) | 5 | 3.55e6 | 4.02e6

No new results follow: 11 of the entries above.
target | dsRNA no. | mean viability with MMS | viability with MMS, replicate 1
iPLA2-VIA (GeneID 39160) | 1 | 3.41e6 | 3.90e6
Zfrp8 (GeneID 45021) | 1 | 3.56e6 | 4.00e6
CG2258 (GeneID 31729) | 1 | 3.63e6 | 3.95e6
CG11837 (GeneID 43429) | 1 | 3.36e6 | 3.80e6
feo (GeneID 32015) | 1 | 1.79e6 | 4.02e6
GAPsec (GeneID 38987) | 1 | 3.59e6 | 4.04e6
CG12069 (GeneID 43643) | 1 | 3.37e6 | 3.76e6
roh (GeneID 246602) | 1 | 3.40e6 | 3.88e6
U4-U6-60K (GeneID 39955) | 1 | 3.47e6 | 3.95e6
CG32695 (GeneID 31918) | 1 | 3.84e6 | 4.27e6
dmpd (GeneID 36061) | 1 | 3.66e6 | 4.13e6
